# Hit rate of the full screen: of about 220,000 compounds, about 2,400 (1.1%) were called active. This list was built around the results that the source calls inconclusive (neither active nor inactive); the mix of calls is not that of the screen. Calls follow the shape of the dose curve; as a rule, active = well fitted inhibition curve with a large enough effect; inconclusive = small, poorly fitted or top-dose-only effect, or effect the other way; inactive = no such curve, though single readings can be large or run the other way. Where the call is inconclusive, the potency comes from a doubtful curve fit.
# Test: qHTS Multiplex Assay to Identify Dual Action Probes in a Cell Model of Huntington: Aggregate Formation (GFP); also: nearly all actives have a fitted effect of over 60% in size
# Details: PC12 HttQ103-GFP aggregates, Acumen cytometry, 40 h; activity change, negative = inhibition: at 46.1 µM (top of the series) unless noted
# Summary of the method: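 Aggregate formation scored by laser-scanning cytometer (488 excitation, 500–530 emission) in lysed PC12 cells expressing Q103-GFP after 100 nM tebufenozide induction; library tested in dose series, with ATPLite reagent added in the multiplex.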
# % is scaled to controls: 0 for no effect and ±100 for the full control effect; potency is read from the fitted curve at half-maximal effect.
Compound,Potency,"activity change, negative = inhibition"
CC1CN(CC(=O)Nc2ccccc2Sc2ccccc2)CC(C)O1 (stereo not given),"inconclusive: 35.5 µM [inhibitor, single point]",–
O=C1c2cccc3cccc(c23)C(=O)N1CCN1CCN(CC(O)COc2ccc3ccccc3c2)CC1 (stereo not given),"inconclusive: 35.5 µM [inhibitor, single point]",–
Cc1ccc(N2C(=O)C(F)(F)C2c2ccccc2)cc1 (stereo not given),–,inactive: -9%
N#Cc1nc(COc2ccc(-c3ccccc3)cc2)oc1NCc1cccnc1,"inconclusive: 17.8 µM [inhibitor, single point]",–
COc1cc2c(cc1NC(=O)c1ccc(C)c([N+](=O)[O-])c1)oc1ccccc12,"inconclusive: 1.26 µM [inhibitor, single point]",–
CN1C(=S)N(c2cccnc2)C(=O)/C1=C\c1ccc(C(C)(C)C)cc1,–,inactive: -23.5%
CCOc1ccc(/C=N/NC(=S)NC2CC3CCC2C3)cc1 (stereo not given),–,inactive: -6.87% [at 9.22 µM]
COc1ccc(NC(=O)CSC2=NCCN2)cc1,–,inactive: -0.646%
COc1ccccc1NS(=O)(=O)/C=C/c1ccccc1,"inconclusive: 0.631 µM [inhibitor, single point]",–
O=c1c2ccccc2nc(-c2ccc([N+](=O)[O-])cc2)n1O,"inconclusive: 11.2 µM [inhibitor, partial curve]",–
CC(=O)Nc1ccc(OCC(=O)NCCc2ccc(Cl)cc2)cc1,"inconclusive: 6.31 µM [inhibitor, single point]",–
COc1ccccc1C1CC(c2c(-c3ccccc3)c3cc(Cl)ccc3[nH]c2=O)=NN1S(C)(=O)=O (stereo not given),"inconclusive: 11.2 µM [inhibitor, single point]",–
O=C(OCC(=O)N1CCCC1)c1ccc(NS(=O)(=O)c2cccs2)cc1O,–,inactive: -8.95%
N#C/C(=C(/O)Cc1cccc2ccccc12)c1nc2ccccc2s1,"inconclusive: 5.62 µM [inhibitor, single point]",–
O=[N+]([O-])c1cccnc1Oc1ccc(C2SCCS2)cc1,–,inactive: -2.21% [at 9.22 µM]
Cc1ccnc(NS(=O)(=O)c2ccc(NC(=O)c3cc(-c4ccccc4)nc4ccccc34)cc2)n1,"inconclusive: 35.5 µM [activator, single point]",–
CC(NC(=O)Cc1ccc(F)cc1)c1ccc(F)cc1 (stereo not given),"inconclusive: 5.62 µM [activator, single point]",–
Cc1ccc(C(=O)Nc2ccc(Br)c(C(F)(F)F)c2)cc1,"inconclusive: 22.4 µM [inhibitor, single point]",–
O=C(COC(=O)c1ccc2c(c1)OCCO2)Nc1cccc(S(=O)(=O)N2CCOCC2)c1,–,inactive: 10%
Cn1nc(CC(=O)NC2CCCCCC2)c2ccccc2c1=O,"inconclusive: 35.5 µM [inhibitor, single point]",–
O=C(O)CCc1ccc(-c2ccccc2)o1,"inconclusive: 3.55 µM [inhibitor, single point]",–
CCc1c(C)nc2ncnn2c1N1CCCC(C(=O)NCCc2ccccc2)C1 (stereo not given),"inconclusive: 8.91 µM [activator, partial curve]",–
CCOc1ccc(NC(=S)N2CCCN(Cc3cc(C)ccc3C)C2)cc1,active: 28.2 µM,–
COC(=O)N(NC(=O)C(O)(c1ccccc1)c1ccccc1)c1ccc(C)cc1,–,inactive: -2.04%

Compound,Potency,"activity change, negative = inhibition"
COc1ccc(CCNc2oc(COc3ccc(F)cc3)nc2C#N)cc1,"inconclusive: 25.1 µM [inhibitor, single point]",–
CCC(C)N1C(=O)S/C(=C/c2ccc3c(c2)n(C)c(=O)n3C)C1=O (stereo not given),"inconclusive: 35.5 µM [inhibitor, single point]",–
COc1cc2c(cc1OC)C(C)N(C(=O)c1ccc(Br)o1)CC2 (stereo not given),"inconclusive: 11.2 µM [activator, single point]",–
N#C/C(=C\c1ccc(N2CCOCC2)c([N+](=O)[O-])c1)c1nc2ccccc2[nH]1,"inconclusive: 14.1 µM [inhibitor, single point]",–
Nc1nc(SCc2ccccc2)[nH]c(=O)c1-c1ccccc1,"inconclusive: 5.62 µM [inhibitor, single point]",–
NC(=O)c1c(NC(=O)CSc2nnc(-c3ccco3)n2N)sc2c1CCCC2,"inconclusive: 35.5 µM [inhibitor, single point]",–
C/C(=N\OC(=O)NC1CCCCC1)c1sc(-c2ccccc2)nc1C,"inconclusive: 14.1 µM [inhibitor, single point]",–
Cc1cc(/C=C2/NC(=O)NC2=O)c(C)n1-c1sc2c(c1C#N)CCCC2,–,inactive: 6.01%
CN(C)c1ccc(C=NCCC2(O)CCOC(C)(C)C2)cc1 (stereo not given),–,inactive: -9.72%
Cn1nccc1C(=O)Oc1ccc(/C=N/NC(=O)c2ccccc2O)cc1,"inconclusive: 1.26 µM [activator, single point]",–
CCN1C(=O)/C(=C/C=C2/Sc3ccc4ccccc4c3N2CCO)SC1=S,–,inactive: -0.0263%
CCN(CC)CCOc1ccc(/C(=C(/Cl)c2ccccc2)c2ccccc2)cc1,"inconclusive: 35.5 µM [inhibitor, single point]",–
Cc1nn(C(C)C(=O)N2CCc3ccccc3C2)c(=O)c2cc3occc3n12 (stereo not given),"inconclusive: 1 µM [activator, partial curve]",–
COC(=O)c1ccc([N+](=O)[O-])cc1N1C(=O)C2C3CCC(C3)C2C1=O (stereo not given),"inconclusive: 3.98 µM [activator, single point]",–
CC(C)(C)n1nnnc1C(c1cccs1)N(Cc1ccc(Cl)cc1)CC1CCCO1 (stereo not given),active: 14.1 µM,–
Cc1ccc(Nc2nc(CSc3nnnn3-c3ccccc3)cs2)cc1,"inconclusive: 35.5 µM [inhibitor, single point]",–
S=C(NCCc1ccccc1)NCC(c1ccco1)N1CCCCC1 (stereo not given),"inconclusive: 17.8 µM [inhibitor, single point]",–
NC(=O)C1CCN(C(=O)c2ccco2)CC1,–,inactive: 8.49%
COc1ccc2[nH]c(=O)c(CN(CCN3CCCC3)C(=O)Nc3ccccc3Cl)cc2c1,"inconclusive: 35.5 µM [inhibitor, single point]",–
CC(NC(=O)Nc1nnc(C(F)(F)F)s1)(C(F)(F)F)C(F)(F)F,active: 2.24 µM,–
COc1ccc(OCC(O)Cn2c(N)nc3c2c(=O)[nH]c(=O)n3C)cc1 (stereo not given),–,inactive: 12.7% [at 9.22 µM]
CC(=O)N(c1ccc2oc(=O)sc2c1)S(=O)(=O)c1cccs1,"inconclusive: 10 µM [activator, partial curve]",–
Cc1cc(C)c(S(=O)(=O)c2c(C)cccc2C)c(OCC(C)C)n1,"inconclusive: 11.2 µM [inhibitor, partial curve]",–
CCC(CC)NC(=O)c1n[nH]c(=O)c2ccccc12,"inconclusive: 1 µM [activator, partial curve]",–

# Entries shown so far that contain a thiophene ring, fused or not (5):
Compound,Potency,"activity change, negative = inhibition"
O=C(OCC(=O)N1CCCC1)c1ccc(NS(=O)(=O)c2cccs2)cc1O,–,inactive: -8.95%
NC(=O)c1c(NC(=O)CSc2nnc(-c3ccco3)n2N)sc2c1CCCC2,"inconclusive: 35.5 µM [inhibitor, single point]",–
Cc1cc(/C=C2/NC(=O)NC2=O)c(C)n1-c1sc2c(c1C#N)CCCC2,–,inactive: 6.01%
CC(C)(C)n1nnnc1C(c1cccs1)N(Cc1ccc(Cl)cc1)CC1CCCO1 (stereo not given),active: 14.1 µM,–
CC(=O)N(c1ccc2oc(=O)sc2c1)S(=O)(=O)c1cccs1,"inconclusive: 10 µM [activator, partial curve]",–

# More entries follow.

Compound,Potency,"activity change, negative = inhibition"
Cc1ccc2nc(-c3ccccc3)cc(C(=O)N3CCc4ccccc4C3)c2c1,"inconclusive: 28.2 µM [inhibitor, single point]",–
Cc1cccc2cc3c(N)c(C(=O)N4CCc5ccccc54)sc3nc12,"inconclusive: 8.91 µM [inhibitor, partial curve]",–
COc1ccc(NC(=O)C2CC2)cc1-n1cnnn1,–,inactive: -11.3% [at 9.22 µM]
Cc1nc(CN(C)C(=O)c2ccccc2OC2CCN(S(C)(=O)=O)CC2)cs1,–,inactive: -2.78% [at 9.22 µM]
CN(C)c1ccc(C2=NOC(CN3C(=O)c4ccccc4S3(=O)=O)C2)cc1 (stereo not given),–,inactive: -0.594% [at 9.22 µM]
COc1ccc(C(=O)NCCNc2ccc([N+](=O)[O-])cc2)cc1,–,inactive: 5.67%
CCCC1=C/C(=C/c2ccc(-c3ccccc3OC)o2)C(=O)O1,"inconclusive: 14.1 µM [activator, single point]",–
CN1/C(=C\C(=O)C[n+]2ccc(C(=O)c3ccccc3)cc2)C(C)(C)c2ccccc21,active: 12.6 µM,–
O=C1SCCc2c1n(Cc1ccccc1)c1ccccc21,"inconclusive: 8.91 µM [activator, partial curve]",–
C(=N\Nc1nc(N2CCCC2)nc(N2CCCC2)n1)/c1ccncc1,–,inactive: -3.26%
O=C(Nc1nsc(-c2ccccc2)n1)c1cccs1,"inconclusive: 12.6 µM [inhibitor, partial curve]",–
Cc1ccc(-n2nc3c([n+]2[O-])CCc2c-3no[n+]2[O-])cc1,active: 12.6 µM,–
CCOC(=O)c1cccc(Nc2nc(-c3cccnc3)nc3ccccc23)c1,"inconclusive: 35.5 µM [inhibitor, single point]",–
CC(=O)Nc1ccc(C(=O)N2CCN(C(=O)c3ccco3)CC2)cc1,"inconclusive: 6.31 µM [activator, partial curve, poor fit]",–
NNC(=O)/C(=N/Nc1ccccc1)S(=O)(=O)c1ccc(Cl)cc1,"inconclusive: 14.1 µM [inhibitor, single point]",–
Cc1ccccc1C1C(C#N)=C2N=C(N)c3c(sc4c3CCCCC4)N2C2=C1C(=O)CCC2 (stereo not given),–,inactive: 28.1%
CCN(CC)S(=O)(=O)c1ccc2oc(C(=O)N3CCc4ccccc4C3)c(C)c2c1,"inconclusive: 35.5 µM [inhibitor, single point]",–
CS(=O)(=O)Cc1cc(N2CCCC2)nc(-c2ccccc2)n1,–,inactive: -10.7%
COc1ccc(C(=O)NC(=S)N2CCC(C)CC2)cc1,–,inactive: 16%
Cc1cc2c(cc(C(=O)OC(C(=O)NCc3ccco3)C(C)C)n2C)o1 (stereo not given),–,inactive: -1.49%
C/C(=N\NC(=S)NC1CCCCC1)c1c(F)cccc1F,"inconclusive: 35.5 µM [inhibitor, single point]",–
CC(C)c1nc(SCC(=O)Nc2ccc(N(C)C)cc2)c2ccccc2n1,"inconclusive: 4.47 µM [activator, partial curve]",–
